Data as given in PubChem BioAssay AID1671195 (Yale University, 2021).

Assay: 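Genes whose knockdown alters LDL uptake in liver cancer cells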 (primary screen)
System: human Huh7 hepatoma cells
Reagents: siRNA pool against human genes, 18 nM
Timing: about 2 to 2.5 days of knockdown, then 8 h LDL uptake
Conditions: DiI-labelled LDL at 30 µg/ml for 8 h, in lipoprotein-deficient serum medium
Detection: 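Per-cell DiI-LDL intensity by automated imaging; well means scaled to the plate median and given as a robust z-score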
Reading the numbers: robust z-score: higher = more LDL uptake after knockdown
Rule for the call: 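Active when two or more replicates show a robust z-score above 2 or below -2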
The whole screen tested about 22,000 reagents; below is an unselected part. Over the whole deposit, about 1,510 (6.9%) are marked active. 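Active includes knockdowns raising or lowering LDL uptake; positive z-scores mean more uptake, negative mean less.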 A number with no mark means an inactive call.

SIGLEC1 gave robust z-score, replicate 1 = 1.92; robust z-score, replicate 2 = -0.0368; robust z-score, replicate 3 = -0.0118.
Knock-down of GPR176 came out at: robust z-score, replicate 1 = 1.03; robust z-score, replicate 2 = 0.125; robust z-score, replicate 3 = 0.338.
Against IZUMO2, the values are robust z-score, replicate 1 = 0.476; robust z-score, replicate 2 = 0.546; robust z-score, replicate 3 = 0.898.
NRG3 scored robust z-score, replicate 1 = -0.676; robust z-score, replicate 2 = 0.0621; robust z-score, replicate 3 = -1.4.
Depletion of LOC387905 (retired record) came out at: robust z-score, replicate 1 = 2.01 (active); robust z-score, replicate 2 = 1.94; robust z-score, replicate 3 = 1.65.
LRTM1 showed robust z-score, replicate 1 = -1.44; robust z-score, replicate 2 = -1.13; robust z-score, replicate 3 = -0.86.
For C19orf48P, the entry reads robust z-score, replicate 1 = -0.391; robust z-score, replicate 2 = -0.204; robust z-score, replicate 3 = -0.226.
After knock-down of HLX, the screen gave robust z-score, replicate 1 = 0.175; robust z-score, replicate 2 = 0.795; robust z-score, replicate 3 = 0.00353.
Depletion of OSBPL7 came out at: robust z-score, replicate 1 = 0.207; robust z-score, replicate 2 = 1.21; robust z-score, replicate 3 = 0.189.
PAFAH1B1 gave robust z-score, replicate 1 = -1.26; robust z-score, replicate 2 = -1.13; robust z-score, replicate 3 = -1.2.
For FTO the deposit lists robust z-score, replicate 1 = 0.421; robust z-score, replicate 2 = 0.146; robust z-score, replicate 3 = 0.00228.
Depletion of STC2 came out at: robust z-score, replicate 1 = -0.00276; robust z-score, replicate 2 = 2.38; robust z-score, replicate 3 = 0.0725.

As entered above:
Under “robust z-score, replicate 2”, STC2 shows 2.38
Entry of SIGLEC1 under “robust z-score, replicate 1”: 1.92
